Screen size: about 350,000 compounds; about 220 (0.063%) were called active. This list was built around the results that the source calls inconclusive (neither active nor inactive); the mix of calls is not that of the screen. Calls come from the whole dose curve; as a rule, active = well fitted activation curve with a large enough effect; inconclusive = small, poorly fitted or top-dose-only effect; inactive = no such curve, though single readings can be large or run the other way. Potencies beside an inconclusive call are fits to weak or partial responses and may not hold up.
assay: qHTS for Activators of Integrin-Mediated Alleviation for Muscular Dystrophy; settings: alpha7betagal myoblasts, beta-gal FDG fluorescence, 48 h; activation: at 38.3 µM (top of the series); note: nearly all actives have a fitted effect of over 60% in size;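 for activation: 100% = response of the positive control SU9516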
In short: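 Alpha7betagal+/- myoblasts (passage 13) were plated 16-24 hr, then exposed to compounds (1:260 dilution of DMSO stock) for 48 hours at 37C. After MPER lysis, β-galactosidase reporter activity was read as FDG fluorescence (ex 480/em 540) after 30 minutes.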
Potency is the fitted concentration of half-maximal effect.

SMILES	Potency	activation
Cc1cc(NC(=O)C(C)SCC(=O)Nc2ccccc2C(C)(C)C)no1 (stereo not given)	inactive	–
NNC(=O)c1nn(-c2ccc(Cl)cc2)cc1O	inconclusive: 2.24 µM [activator, partial curve, poor fit]	–
COc1ccc(-c2nnc(NC(=O)c3cc(Cl)ccc3Cl)o2)cc1	inactive	–
CCCc1c(C(=O)NNc2cc(C(F)(F)F)ccc2Cl)cnn1-c1ccccc1	inconclusive: 11.2 µM [activator, single point]	–
O=C(CNC(=O)c1ccncc1)N/N=C/c1ccccc1[N+](=O)[O-]	inconclusive: 2 µM [activator, partial curve, poor fit]	–
CCOC(=O)c1c(N/C=C(\C#N)c2nc(-c3ccc(OC(C)=O)cc3)cs2)sc2c1CCC2	inconclusive: 0.501 µM [activator, full curve, poor fit]	–
O=C(CN1CCCc2ccccc21)Nc1ccc(F)cc1[N+](=O)[O-]	inconclusive: 5.62 µM [activator, single point]	–
CSc1cccc(NC(=S)NN(C)C)c1	inactive	–
CC(=O)Nc1ccc(S(=O)(=O)N(C)CC(=O)OCC(=O)NNC(=O)c2ccccc2F)cc1	inactive	–
O=C(/C=C/c1c(F)cccc1Cl)c1ccc(O)cc1	inactive	–
O=C(COC(=O)[C@@H]1CCCN1C(=O)c1cccs1)Nc1ccc(Br)cc1	inconclusive: 5.62 µM [activator, partial curve, poor fit]	–
Cc1cc(C)c(C)c(S(=O)(=O)NCC(=O)Nc2ccc(F)cc2)c1C	inconclusive: 5.01 µM [activator, single point]	–
N/C(=N\OC(=O)c1ccc(=O)n(Cc2ccccc2)c1)c1ccccn1	inconclusive: 5.01 µM [activator, single point]	–
Cc1cc(C)n(CCC(=O)N2CCCC(Nc3ccc(F)cc3)C2)n1 (stereo not given)	inactive	–
O=C1c2ccccc2-c2onc3c(N4CCN(CCO)CC4)cc(N4CCN(C(=O)c5ccco5)CC4)c1c23	inactive	–
COc1cccc(OC)c1-c1nn2c(-c3ccccc3Cl)nnc2s1	inconclusive: 3.16 µM [activator, partial curve, poor fit]	–
O=C(Nc1ccc(Oc2ccccc2)nc1)C1CCN(Cc2ccccc2)CC1	inactive	–
COc1cc(C(=O)N(Cc2cccnc2)Cc2cc3cc4c(cc3[nH]c2=O)OCCO4)cc(OC)c1OC	inactive	–
O=C(O)c1ccccc1NC(=O)C1CCCO1 (stereo not given)	inconclusive: 12.6 µM [activator, single point]	–
CC(=O)Nc1cccc(C(=O)N2CCN(S(=O)(=O)c3ccc4ccccc4c3)CC2)c1	inconclusive: 0.501 µM [activator, full curve, poor fit]	–
Cc1ccc(Cl)cc1NC(=O)NCc1ccccn1	inconclusive: 3.55 µM [activator, single point]	–
C[C@]12CCC3C(CC=C4C[C@@H](O)CC[C@@]43C)C1CCC2[C@]1(C)CCC(=O)O1 (stereo not given in full)	inconclusive: 10 µM [activator, single point]	–
CN1CCN(S(=O)(=O)c2ccc(NC(=O)c3ccccc3Cl)cc2)CC1	inconclusive: 3.16 µM [activator, full curve, poor fit]	–

SMILES	Potency	activation
O=C(COC(=O)c1ccc([N+](=O)[O-])o1)NC1CCCCC1	–	inconclusive: -53.1% [activator]
CC(=O)Nc1ccc(S(=O)(=O)Nc2nc3ccccc3nc2Nc2ccc(C(=O)O)c(O)c2)cc1	inconclusive: 11.2 µM [activator, partial curve, poor fit]	–
COc1cc(O)ccc1C=O	inconclusive: 2.82 µM [activator, single point]	–
COc1cc(/C=C(\C#N)c2nc3ccccc3n2C)cc(OC)c1O	inconclusive: 10 µM [activator, partial curve, poor fit]	–
O=C(c1nc[nH]c1C(=O)N1CCc2ccccc2C1)N1CCc2ccccc2C1	inactive	–
O=C(C1CC(=O)N(c2ccccc2)C1)N1CCCCCC1 (stereo not given)	inconclusive: 28.2 µM [activator, single point]	–
Cc1c(C(=O)N(C)CCC#N)oc2ccc(S(=O)(=O)N3CC(C)CC(C)C3)cc12 (stereo not given)	inconclusive: 3.16 µM [activator, single point]	–
C=CCn1cc(C(=O)NCCCOCC)c(=O)c2cc(S(=O)(=O)N(CC)CC)ccc21	inactive	–
CC(C)c1cc(C(=O)NC2CCCc3c2cnn3-c2ccccc2F)no1 (stereo not given)	inactive	–
COc1ccc(CN2C(=O)C(C)S/C2=N/N=C/c2ccco2)cc1 (stereo not given)	inconclusive: 0.501 µM [activator, full curve, poor fit]	–
CC(CNC(=O)C1CCCCC1)NC(=O)C1CCCCC1 (stereo not given)	inconclusive: 14.1 µM [activator, single point]	–
CC(Oc1ccc(Cl)cc1Cl)C(=O)NCCCn1ccnc1 (stereo not given)	inactive	–
Cc1cc(C(=O)NNC(=S)NCC2CCCO2)cs1 (stereo not given)	inconclusive: 3.55 µM [activator, single point]	–
CC(=O)c1c(C)[nH]c(C(=O)OCC(=O)Nc2c(C)n(C)n(-c3ccccc3)c2=O)c1C	inconclusive: 28.2 µM [activator, single point]	–
COCCCNC(=O)N1c2ccccc2Sc2ccccc21	inactive	–
CCOC(=O)C1=C(C)N(c2ccc(Cl)cc2)C(=O)NC1c1cccc([N+](=O)[O-])c1 (stereo not given)	inconclusive: 2.24 µM [activator, partial curve, poor fit]	–
CC(=O)Cc1nsc(Nc2ccc(Cl)cc2)n1	inactive	–
CCc1ccc2nc(SCC(=O)N3CC(=O)Nc4ccccc43)c(C#N)cc2c1	inactive	–
COc1ccc(CNC(=O)CSc2n[nH]c(N)n2)cc1	inconclusive: 5.01 µM [activator, single point]	–
CCc1nn(CCCC(=O)N2CCN(c3cccc(C)c3C)CC2)c(=O)c2cc3occc3n12	inactive	–
CC(C)CN(C(=O)c1cccc(Cl)c1)c1c(N)n(Cc2ccccc2)c(=O)[nH]c1=O	inconclusive: 10 µM [activator, partial curve, poor fit]	–
CC1CCN(C(=O)/C(=C\c2cccs2)NC(=O)c2ccccc2)CC1	inconclusive: 28.2 µM [activator, single point]	–

2 neighbouring records already listed:
SMILES	Potency	activation
CCc1nn(CCCC(=O)N2CCN(c3cccc(C)c3C)CC2)c(=O)c2cc3occc3n12	inactive	–
CC(C)CN(C(=O)c1cccc(Cl)c1)c1c(N)n(Cc2ccccc2)c(=O)[nH]c1=O	inconclusive: 10 µM [activator, partial curve, poor fit]	–

Reference: PubChem BioAssay AID624291 (National Center for Advancing Translational Sciences (NCATS), 2012)
